{"source": "paper PMC5554155", "proteins": {"B1": {"name": "β1-adrenergic receptor (β1AR): N15A-3SA (Ser49 or Gly49 backbone) (protein)", "parent chain": "MGAGVLVLGASEPGALSSAAPLPDGAATAARLLVPASPPASLLPPASESPEPLSQQWTAGMGLLMALIVLLIVAGNVLVIVAIAKTPRLQTLTNLFIMSLASADLVMGLLVVPFGATIVVWGRWEYGSFFCELWTSVDVLCVTASIETLCVIALDRYLAITSPFRYQSLLTRARARGLVCTVWAISALVSFLPILMHWWRAESDEARRCYNDPKCCDFVTNRAYAIASSVVSFYVPLCIMAFVYLRVFREAQKQVKKIDSCERRFLGGPARPPSPSPSPVPAPAPPPGPPRPAAAAATAPLANGRAGKRRPSRLVALREQKALKTLGIIMGVFTLCWLPFFLANVVKAFHRELVPDRLFVFFNWLGYANSAFNPIIYCRSPDFRKAFQRLLCCARRAARRRHATHGDRPRASGCLARPGPPPSPGAASDDDDDDVVGATPPARLLEPWAGCNGGAAADSDSSLDEPCRPGFASESKV"}}, "assay": "immunoblot, N-terminal Flag vs C-terminal epitopes, ldlD cells", "settings": "glycan lost; control: N15A-β1AR (Ser49 or Gly49 backbone), with Gal/GalNAc", "data": [{"protein": "B1", "values": [{"measurement": "other: proteolytic processing", "value": "increases"}]}]}
